Values quoted from earlier work in patent publication US11433143B2, “Nano-enabled immunotherapy in cancer” (The Regents of the University of California, priority 2017, dated 2022).
Converted amounts (≈) assume the structure as drawn.

Settings: cited from earlier work

SMILES: CC(=O)O[C@@]12CO[C@@H]1C[C@H](O)[C@@]1(C)C(=O)[C@H](O)C3=C(C)[C@@H](OC(=O)[C@H](O)[C@@H](NC(=O)OC(C)(C)C)c4ccccc4)C[C@@](O)([C@@H](OC(=O)c4ccccc4)[C@H]21)C3(C)C [docetaxel]
- solubility in ethanol: ~100 mg/mL (≈ 124 mM)
